Measured values: article PMC6429053
These are yes or no findings as the source states them, for the method shown. In cells and extracts the contact can be indirect. Some entries that bind do so weakly or less than the wild type.

The chains behind the UniProt entries cited, without tags or fusion partners.
UniProt P04150: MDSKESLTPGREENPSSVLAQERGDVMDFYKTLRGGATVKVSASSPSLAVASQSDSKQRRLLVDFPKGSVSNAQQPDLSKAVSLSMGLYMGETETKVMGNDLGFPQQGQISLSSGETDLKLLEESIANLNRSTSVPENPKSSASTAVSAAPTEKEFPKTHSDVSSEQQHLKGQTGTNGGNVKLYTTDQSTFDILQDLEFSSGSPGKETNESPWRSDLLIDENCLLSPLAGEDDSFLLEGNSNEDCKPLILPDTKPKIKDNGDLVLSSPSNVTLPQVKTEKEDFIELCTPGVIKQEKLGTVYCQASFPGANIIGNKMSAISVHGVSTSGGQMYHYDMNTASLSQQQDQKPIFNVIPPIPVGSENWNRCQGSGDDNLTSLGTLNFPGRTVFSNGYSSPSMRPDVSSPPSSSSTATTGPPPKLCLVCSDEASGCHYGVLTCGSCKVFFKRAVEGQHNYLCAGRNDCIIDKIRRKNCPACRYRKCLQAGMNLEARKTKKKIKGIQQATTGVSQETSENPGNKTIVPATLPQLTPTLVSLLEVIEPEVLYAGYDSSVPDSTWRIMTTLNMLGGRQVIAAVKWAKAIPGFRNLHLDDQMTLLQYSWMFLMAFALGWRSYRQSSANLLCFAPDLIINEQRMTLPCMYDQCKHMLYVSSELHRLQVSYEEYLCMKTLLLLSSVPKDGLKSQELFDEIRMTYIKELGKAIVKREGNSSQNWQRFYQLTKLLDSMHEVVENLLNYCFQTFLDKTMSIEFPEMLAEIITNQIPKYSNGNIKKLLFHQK

Target: T1, Heme oxygenase 1 (human (endogenous in PC3)) (UniProt P09601)
T1 sequence: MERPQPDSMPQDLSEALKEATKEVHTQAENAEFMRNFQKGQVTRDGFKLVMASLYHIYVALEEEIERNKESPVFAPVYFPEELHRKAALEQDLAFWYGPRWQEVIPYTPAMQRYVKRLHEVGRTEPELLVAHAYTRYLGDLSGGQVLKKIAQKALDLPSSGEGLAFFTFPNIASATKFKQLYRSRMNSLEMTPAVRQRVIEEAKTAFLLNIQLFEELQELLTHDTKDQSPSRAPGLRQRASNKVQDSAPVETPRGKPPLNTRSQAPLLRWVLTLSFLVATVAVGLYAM
Test: co-IP; PC3 cells treated with Hemin (80 uM, 24 h) or PBS; nuclear and cytoplasmic extracts; 500 ug protein incubated overnight at 4 C with 8 ug anti-HO-1 antibody (IgG as negative control), Protein G agarose beads 3 h at 4 C; immunoblot with anti-GR and anti-HO-1; lysis buffer 20 mM Tris HCl pH 8, 137 mM NaCl, 10% glycerol, 1% Triton X-100, EDTA

Glucocorticoid receptor (from UniProt P04150 1-777)
binding: binds
